Source: PMC9537944, “eIF4G1 N-terminal intrinsically disordered domain is a multi-docking station for RNA, Pab1, Pub1, and self-assembly” (Frontiers in Molecular Biosciences, 2022)

Protein sequences, listed by entry. Tags and fused reporters are not part of them. Lines headed by an entry give the natural chain unless they say otherwise; changes in a name come on top.
UniProt P39935: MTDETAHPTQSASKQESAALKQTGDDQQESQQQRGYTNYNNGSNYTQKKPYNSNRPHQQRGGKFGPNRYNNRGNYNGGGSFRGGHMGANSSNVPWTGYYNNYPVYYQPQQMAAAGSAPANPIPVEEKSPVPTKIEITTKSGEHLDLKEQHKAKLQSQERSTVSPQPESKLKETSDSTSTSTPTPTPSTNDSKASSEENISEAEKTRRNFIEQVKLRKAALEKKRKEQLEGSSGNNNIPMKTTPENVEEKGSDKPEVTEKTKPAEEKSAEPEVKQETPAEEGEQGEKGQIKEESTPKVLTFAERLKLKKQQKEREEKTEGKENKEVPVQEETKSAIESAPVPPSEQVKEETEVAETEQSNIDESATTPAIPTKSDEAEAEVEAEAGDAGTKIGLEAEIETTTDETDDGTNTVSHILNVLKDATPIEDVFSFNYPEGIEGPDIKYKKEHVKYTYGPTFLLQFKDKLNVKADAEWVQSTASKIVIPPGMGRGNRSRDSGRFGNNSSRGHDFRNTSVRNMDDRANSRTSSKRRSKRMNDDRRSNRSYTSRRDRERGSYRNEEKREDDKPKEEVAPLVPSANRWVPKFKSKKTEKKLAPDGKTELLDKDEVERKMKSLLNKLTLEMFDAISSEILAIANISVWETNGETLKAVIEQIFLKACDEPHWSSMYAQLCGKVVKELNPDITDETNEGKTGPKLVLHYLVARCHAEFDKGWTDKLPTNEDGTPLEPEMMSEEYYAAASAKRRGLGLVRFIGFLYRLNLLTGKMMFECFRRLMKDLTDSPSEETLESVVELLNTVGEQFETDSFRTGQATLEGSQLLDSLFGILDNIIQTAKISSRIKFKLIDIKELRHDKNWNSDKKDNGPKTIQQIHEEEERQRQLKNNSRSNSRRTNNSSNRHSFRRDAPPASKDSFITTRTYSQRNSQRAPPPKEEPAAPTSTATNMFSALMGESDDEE

Molecular target: T1, Pub1 RRM3 (Saccharomyces cerevisiae) (UniProt P32588)
T1 sequence: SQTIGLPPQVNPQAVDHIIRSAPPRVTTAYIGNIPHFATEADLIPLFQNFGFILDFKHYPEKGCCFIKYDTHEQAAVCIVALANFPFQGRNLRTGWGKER
Experiment: NMR titration; 1H-15N HSQC of 15N-labelled Pub1 RRM3 titrated with eIF4G1 peptides, eIF4G1 constructs and mutants, or Pab1 RRM12; NMR buffer (25 mM potassium phosphate pH 6.5, 25 or 150 mM NaCl, 1 mM DTT, 10% D2O), 25°C; both purified

binding	Substance
binds weakly	eIF4G1_(1-184) ΔBOX1 (from UniProt P39935) (domain or fragment)
binds	eIF4G1_(1-184) ΔBOX2 (from UniProt P39935) (domain or fragment)

These are yes or no findings as the source states them, for the method shown. A result given as binding can be weak or reduced; the word gives no strength. Sequences can lack the tags named with a protein.
